According to doi:10.1101/846121:
These are yes or no findings as the source states them, for the method shown. Binding seen in cells or lysates may run through a third protein. Some entries that bind do so weakly or less than the wild type.

Chains of the proteins cited; added tags and fusions are not shown.
UniProt Q9VI13: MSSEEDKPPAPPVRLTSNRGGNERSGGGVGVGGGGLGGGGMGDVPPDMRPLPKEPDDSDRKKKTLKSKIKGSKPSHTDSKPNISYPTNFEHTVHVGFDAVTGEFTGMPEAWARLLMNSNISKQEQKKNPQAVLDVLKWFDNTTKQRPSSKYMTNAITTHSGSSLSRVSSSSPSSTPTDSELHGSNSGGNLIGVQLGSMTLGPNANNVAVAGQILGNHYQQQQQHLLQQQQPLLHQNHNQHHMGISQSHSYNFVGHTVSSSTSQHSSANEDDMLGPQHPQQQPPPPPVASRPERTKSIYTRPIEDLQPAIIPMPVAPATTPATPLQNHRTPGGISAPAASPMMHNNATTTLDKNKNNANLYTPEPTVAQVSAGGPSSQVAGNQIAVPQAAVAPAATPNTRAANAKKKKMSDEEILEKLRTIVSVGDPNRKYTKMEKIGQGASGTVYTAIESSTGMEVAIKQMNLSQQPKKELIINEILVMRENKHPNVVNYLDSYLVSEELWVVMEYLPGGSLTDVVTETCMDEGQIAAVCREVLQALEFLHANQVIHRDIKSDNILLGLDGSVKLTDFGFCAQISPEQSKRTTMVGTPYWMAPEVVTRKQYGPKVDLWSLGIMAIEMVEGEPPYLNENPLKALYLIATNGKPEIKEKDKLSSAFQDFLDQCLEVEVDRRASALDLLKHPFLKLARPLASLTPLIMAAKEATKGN

Molecular target: T1, Discs large (Dlg) (Drosophila (endogenous in third instar larval body wall)) (UniProt P31007)
T1 sequence: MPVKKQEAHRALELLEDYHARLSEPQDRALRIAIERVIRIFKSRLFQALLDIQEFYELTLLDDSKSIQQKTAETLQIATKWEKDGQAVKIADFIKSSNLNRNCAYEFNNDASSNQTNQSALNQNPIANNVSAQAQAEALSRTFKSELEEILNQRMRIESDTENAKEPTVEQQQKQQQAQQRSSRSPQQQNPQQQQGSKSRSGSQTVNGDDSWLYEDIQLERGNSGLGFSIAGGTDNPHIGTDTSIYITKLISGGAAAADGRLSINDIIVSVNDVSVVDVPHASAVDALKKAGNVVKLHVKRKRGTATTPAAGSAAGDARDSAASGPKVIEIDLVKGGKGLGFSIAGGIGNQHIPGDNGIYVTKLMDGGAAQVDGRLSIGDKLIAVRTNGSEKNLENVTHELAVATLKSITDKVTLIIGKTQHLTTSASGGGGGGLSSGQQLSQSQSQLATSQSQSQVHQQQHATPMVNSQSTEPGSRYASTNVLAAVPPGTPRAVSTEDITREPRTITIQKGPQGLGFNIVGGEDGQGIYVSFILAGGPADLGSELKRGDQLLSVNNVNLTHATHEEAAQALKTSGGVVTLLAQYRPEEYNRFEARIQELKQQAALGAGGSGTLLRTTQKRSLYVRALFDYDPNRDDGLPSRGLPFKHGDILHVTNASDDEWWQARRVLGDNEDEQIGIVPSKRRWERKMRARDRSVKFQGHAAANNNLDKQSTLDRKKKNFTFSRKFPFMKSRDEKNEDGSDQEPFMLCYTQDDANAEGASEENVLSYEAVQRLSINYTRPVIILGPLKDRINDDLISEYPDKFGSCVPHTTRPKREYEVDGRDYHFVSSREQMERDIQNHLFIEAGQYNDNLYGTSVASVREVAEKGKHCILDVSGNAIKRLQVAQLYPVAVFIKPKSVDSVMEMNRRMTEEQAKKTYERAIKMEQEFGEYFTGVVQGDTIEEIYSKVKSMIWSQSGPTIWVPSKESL
Experiment: proximity ligation

Molecule | binding
Pak (from UniProt Q9VI13 1-704) (enzyme) | binds
Draper (Drpr) (receptor, UniProt Q9W0A0 17-1031) QADLKDLDGPNICKRRELYNVDVVYTELQSFQERGSTWCVTFPPRCSTYRIKHRVVNKTKTIAKNRIVRDCCDGYIASAGECVPHCSEPCQHGRCISPEKCKCDHGYGGPACDINCPPGWYGRNCSMQCDCLNNAVCEPFSGDCECAKGYTGARCADICPEGFFGANCSEKCRCENGGKCHHVSGECQCAPGFTGPLCDMRCPDGKHGAQCQQDCPCQNDGKCQPETGACMCNPGWTGDVCANKCPVGSYGPGCQESCECYKGAPCHHITGQCECPPGYRGERCFDECQLNTYGFNCSMTCDCANDAMCDRANGTCICNPGWTGAKCAERICEANKYGLDCNRTCECDMEHTDLCHPETGNCQCSIGWSSAQCTRPCTFLRYGPNCELTCNCKNGAKCSPVNGTCLCAPGWRGPTCEESCEPGTFGQDCALRCDCQNGAKCEPETGQCLCTAGWKNIKCDRPCDLNHFGQDCAKVCDCHNNAACNPQNGSCTCAAGWTGERCERKCDTGKFGHDCAQKCQCDFNNSLACDATNGRCVCKQDWGGVHCETNCRSGYYGENCDKVCRCLNNSSCDPDSGNCICSAGWTGADCAEPCPPGFYGMECKERCPEILHGNKSCDHITGEILCRTGYIGLTCEHPCPAGLYGPGCKLKCNCEHGGECNHVTGQCQCLPGWTGSNCNESCPTDTYGQGCAQRCRCVHHKVCRKADGMCICETGWSGTRCDEVCPEGFYGEHCMNTCACPSANFQCHAAHGCVCRSGYTGDNCDELIASQRIADQSENSSRASVALTLVLMTLFACIIFAVFIYYRRRVSNLKTEIAHVHYTHDTNPPSWPPNHNFDNPVYGMQAETRLLPNNMRSKMNNFDQRSTMSTDYGDDCNASGRVGSYSINYNHDLLTKNLNADRTNPIVYNESLKEEHVYDEIKHKEGYKDPDEYDHLDYSRPSTSQKPHYHRMNDAMLNINQDEEKPSNVKNMTVLLNKPLPPTEPEPQHECFDNTNTNLDNVSTASPSSSPKFLK | binds
